Test results: patent EP0560235B1, “Condensed heterocyclic ketone derivatives, their production and use” (priority 1992, dated 1993)
Structures were worked out from names or drawings and are uncertain.

Amino acid sequences for entries named in this document (tags omitted). Residues count along the entry.
UniProt P37136, 32-614 limits assumed: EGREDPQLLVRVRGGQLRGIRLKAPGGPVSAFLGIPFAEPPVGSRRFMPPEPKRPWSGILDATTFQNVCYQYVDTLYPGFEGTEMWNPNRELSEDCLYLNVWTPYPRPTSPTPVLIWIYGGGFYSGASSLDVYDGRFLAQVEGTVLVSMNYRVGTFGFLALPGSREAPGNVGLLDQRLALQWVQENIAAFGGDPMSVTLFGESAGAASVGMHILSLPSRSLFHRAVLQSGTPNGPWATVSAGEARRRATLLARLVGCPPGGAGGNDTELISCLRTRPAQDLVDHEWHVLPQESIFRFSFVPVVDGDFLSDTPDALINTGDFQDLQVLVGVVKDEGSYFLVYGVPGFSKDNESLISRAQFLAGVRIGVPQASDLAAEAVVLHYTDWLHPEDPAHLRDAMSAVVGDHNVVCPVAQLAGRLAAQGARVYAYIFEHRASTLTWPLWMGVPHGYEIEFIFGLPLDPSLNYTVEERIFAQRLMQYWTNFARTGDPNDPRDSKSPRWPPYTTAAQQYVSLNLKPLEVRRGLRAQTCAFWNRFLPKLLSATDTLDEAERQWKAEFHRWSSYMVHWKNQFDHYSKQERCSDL

Target: cholinesterase (Rattus norvegicus, UniProt P37136)
Assay: Cholinesterase inhibitory activity assayed with (acetyl-[3H])-acetylcholine, S1 fraction of cerebral cortex homogenate
Type: biochemical
Conditions: read-out: Acetylcholinesterase inhibitory activity I C50; S1 fraction of male Wistar rat cerebral cortex homogenate; (acetyl-[3H])-acetylcholine substrate; 30 minutes incubation

O=C(CCN1CCN(Cc2ccccc2)CC1)c1ccc2c(c1)CCN(Cc1ccccc1)CC2
IC50: 0.0526 µM
